# In PMC7788524:
# Protein sequences, listed by entry. Tags and fused reporters are not part of them.
# UniProt P05556: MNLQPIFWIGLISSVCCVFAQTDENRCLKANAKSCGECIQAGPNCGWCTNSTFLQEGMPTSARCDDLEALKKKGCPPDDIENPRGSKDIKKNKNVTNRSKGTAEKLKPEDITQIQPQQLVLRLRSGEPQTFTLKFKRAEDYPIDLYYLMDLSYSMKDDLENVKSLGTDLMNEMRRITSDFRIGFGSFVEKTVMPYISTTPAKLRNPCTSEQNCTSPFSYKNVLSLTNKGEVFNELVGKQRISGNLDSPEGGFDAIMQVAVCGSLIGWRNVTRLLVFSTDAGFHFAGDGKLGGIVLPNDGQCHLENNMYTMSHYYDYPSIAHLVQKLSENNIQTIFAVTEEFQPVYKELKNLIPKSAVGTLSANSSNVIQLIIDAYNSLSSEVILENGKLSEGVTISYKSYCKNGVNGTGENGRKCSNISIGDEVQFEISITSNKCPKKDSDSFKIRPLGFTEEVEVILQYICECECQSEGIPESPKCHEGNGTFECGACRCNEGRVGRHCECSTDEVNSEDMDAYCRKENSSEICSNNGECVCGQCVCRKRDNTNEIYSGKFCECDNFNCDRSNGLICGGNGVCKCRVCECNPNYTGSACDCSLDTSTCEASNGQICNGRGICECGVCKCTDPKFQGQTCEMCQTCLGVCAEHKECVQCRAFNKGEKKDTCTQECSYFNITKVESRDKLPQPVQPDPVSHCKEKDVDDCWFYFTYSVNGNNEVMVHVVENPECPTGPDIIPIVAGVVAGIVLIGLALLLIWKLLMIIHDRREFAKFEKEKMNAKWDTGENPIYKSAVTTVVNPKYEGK
# These are yes or no findings as the source states them, for the method shown. In cells and extracts the contact can be indirect. Some results given as binding are weak or reduced against the parent protein; the word gives no strength.
# Assays:
# [1] = target: integrin β1 (human (endogenous in human podocytes)) (UniProt P05556); test: co-IP; INSR precipitated from hWT-IR human podocyte lysate with anti-INSR beta subunit antibody (CT-1) cross-linked to protein G Dynabeads; western blot; cells with 100 nM insulin (time points), with or without palmitate, palmitate with nocodazole; integrin β1 as control
# [2] = target: human insulin receptor (INSR) overexpressed in immortalised human podocytes (hWT-IR) (human) (UniProt P06213); test: as above
# [3] = target: human insulin receptor (INSR) overexpressed in immortalised human podocytes (hWT-IR) (human) (UniProt P06213); test: condition: only cells treated with nocodazole (microtubules disrupted); co-IP; INSR precipitated from hWT-IR human podocyte lysate; cells treated with nocodazole to disrupt microtubules (without palmitate); western blot
binder,measurement,setting,value
"doublecortin domain-containing protein 2 (DCDC2) (protein, UniProt Q9UHG0 1-476) MSGSSARSSHLSQPVVKSVLVYRNGDPFYAGRRVVIHEKKVSSFEVFLKEVTGGVQAPFGAVRNIYTPRTGHRIRKLDQIQSGGNYVAGGQEAFKKLNYLDIGEIKKRPMEVVNTEVKPVIHSRINVSARFRKPLQEPCTIFLIANGDLINPASRLLIPRKTLNQWDHVLQMVTEKITLRSGAVHRLYTLEGKLVESGAELENGQFYVAVGRDKFKKLPYSELLFDKSTMRRPFGQKASSLPPIVGSRKSKGSGNDRHSKSTVGSSDNSSPQPLKRKGKKEDVNSEKLTKLKQNVKLKNSQETIPNSDEGIFKAGAERSETRGAAEVQEDEDTQVEVPVDQRPAEIVDEEEDGEKANKDAEQKEDFSGMNGDLEEEGGREATDAPEQVEEILDHSEQQARPARVNGGTDEENGEELQQVNNELQLVLDKERKSQGAGSGQDEADVDPQRPPRPEVKITSPEENENNQQNKDYAAVA",binding,[1],no binding
same,binding,[2],binds
same,binding,[3],no binding
